Measured values as given in paper PMC5869696.
Results are given in words; binding and its absence hold for the method and conditions named. For part of these data: Binding can be weak; no strength is given.

By UniProt entry, the sequences of proteins in these tests, tags left out. Where a name states a change or a piece, a line headed by the entry shows the natural chain unless it says otherwise.
UniProt Q94CV1: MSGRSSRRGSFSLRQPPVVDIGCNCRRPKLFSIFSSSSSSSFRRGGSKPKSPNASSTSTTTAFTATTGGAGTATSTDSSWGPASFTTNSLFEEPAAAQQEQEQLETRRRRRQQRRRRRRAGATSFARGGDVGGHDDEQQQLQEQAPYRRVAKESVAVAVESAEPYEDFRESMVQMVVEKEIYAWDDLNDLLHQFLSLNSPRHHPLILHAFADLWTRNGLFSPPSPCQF

T1: OsGSK2, entire coding region in pGBKT7 (rice) (UniProt Q60EZ2)
T1 sequence: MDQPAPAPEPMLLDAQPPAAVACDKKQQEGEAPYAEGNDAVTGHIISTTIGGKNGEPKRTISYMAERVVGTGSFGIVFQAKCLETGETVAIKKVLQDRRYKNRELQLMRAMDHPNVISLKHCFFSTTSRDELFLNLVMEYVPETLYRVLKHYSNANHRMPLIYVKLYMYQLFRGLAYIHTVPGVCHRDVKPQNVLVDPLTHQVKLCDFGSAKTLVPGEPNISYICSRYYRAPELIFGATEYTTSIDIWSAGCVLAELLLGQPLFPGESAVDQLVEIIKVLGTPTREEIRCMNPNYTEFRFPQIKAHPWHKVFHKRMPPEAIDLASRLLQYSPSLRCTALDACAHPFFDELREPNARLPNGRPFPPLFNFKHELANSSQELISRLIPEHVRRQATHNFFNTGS


Experiments:
Assay in all cases: two-hybrid; pairwise tests; baits in pGBKT7 (GS9-C1, OsOFP14, OsGSK2), full-length preys in pGADT7
[1] = biological target: T1, OsGSK2, entire coding region in pGBKT7 (rice)
[2] = biological target: GS9-C1 (C-terminal truncation of GS9, residues 238-346) in pGBKT7 (rice (Oryza sativa japonica, Nipponbare))
[3] = biological target: OsOFP14, entire coding region in pGBKT7 (rice)

Molecule	binding [1]	binding [2]	binding [3]
OsOFP8, full-length cDNA in pGADT7 (from UniProt Q94CV1)	binds	–	–
OsGSK2, full-length cDNA in pGADT7 (enzyme, UniProt Q60EZ2 1-402) MDQPAPAPEPMLLDAQPPAAVACDKKQQEGEAPYAEGNDAVTGHIISTTIGGKNGEPKRTISYMAERVVGTGSFGIVFQAKCLETGETVAIKKVLQDRRYKNRELQLMRAMDHPNVISLKHCFFSTTSRDELFLNLVMEYVPETLYRVLKHYSNANHRMPLIYVKLYMYQLFRGLAYIHTVPGVCHRDVKPQNVLVDPLTHQVKLCDFGSAKTLVPGEPNISYICSRYYRAPELIFGATEYTTSIDIWSAGCVLAELLLGQPLFPGESAVDQLVEIIKVLGTPTREEIRCMNPNYTEFRFPQIKAHPWHKVFHKRMPPEAIDLASRLLQYSPSLRCTALDACAHPFFDELREPNARLPNGRPFPPLFNFKHELANSSQELISRLIPEHVRRQATHNFFNTGS	–	no binding	no binding
